Results are given in words; binding and its absence hold for the method and conditions named.
Biological target: Knl1^2000–2311 (UniProt Q8NG31)
Experiment: SEC; analytical SEC co-elution (Superdex200 5/150 or Superose6 5/150), 4°C; proteins mixed in 50 µl, at least 2 hr on ice; SEC buffer with 150 mM NaCl; both purified

The chains behind the UniProt entries cited, without tags or fusion partners. Where a name states a change or a piece, a line headed by the entry shows the natural chain unless it says otherwise.
UniProt Q8NG31: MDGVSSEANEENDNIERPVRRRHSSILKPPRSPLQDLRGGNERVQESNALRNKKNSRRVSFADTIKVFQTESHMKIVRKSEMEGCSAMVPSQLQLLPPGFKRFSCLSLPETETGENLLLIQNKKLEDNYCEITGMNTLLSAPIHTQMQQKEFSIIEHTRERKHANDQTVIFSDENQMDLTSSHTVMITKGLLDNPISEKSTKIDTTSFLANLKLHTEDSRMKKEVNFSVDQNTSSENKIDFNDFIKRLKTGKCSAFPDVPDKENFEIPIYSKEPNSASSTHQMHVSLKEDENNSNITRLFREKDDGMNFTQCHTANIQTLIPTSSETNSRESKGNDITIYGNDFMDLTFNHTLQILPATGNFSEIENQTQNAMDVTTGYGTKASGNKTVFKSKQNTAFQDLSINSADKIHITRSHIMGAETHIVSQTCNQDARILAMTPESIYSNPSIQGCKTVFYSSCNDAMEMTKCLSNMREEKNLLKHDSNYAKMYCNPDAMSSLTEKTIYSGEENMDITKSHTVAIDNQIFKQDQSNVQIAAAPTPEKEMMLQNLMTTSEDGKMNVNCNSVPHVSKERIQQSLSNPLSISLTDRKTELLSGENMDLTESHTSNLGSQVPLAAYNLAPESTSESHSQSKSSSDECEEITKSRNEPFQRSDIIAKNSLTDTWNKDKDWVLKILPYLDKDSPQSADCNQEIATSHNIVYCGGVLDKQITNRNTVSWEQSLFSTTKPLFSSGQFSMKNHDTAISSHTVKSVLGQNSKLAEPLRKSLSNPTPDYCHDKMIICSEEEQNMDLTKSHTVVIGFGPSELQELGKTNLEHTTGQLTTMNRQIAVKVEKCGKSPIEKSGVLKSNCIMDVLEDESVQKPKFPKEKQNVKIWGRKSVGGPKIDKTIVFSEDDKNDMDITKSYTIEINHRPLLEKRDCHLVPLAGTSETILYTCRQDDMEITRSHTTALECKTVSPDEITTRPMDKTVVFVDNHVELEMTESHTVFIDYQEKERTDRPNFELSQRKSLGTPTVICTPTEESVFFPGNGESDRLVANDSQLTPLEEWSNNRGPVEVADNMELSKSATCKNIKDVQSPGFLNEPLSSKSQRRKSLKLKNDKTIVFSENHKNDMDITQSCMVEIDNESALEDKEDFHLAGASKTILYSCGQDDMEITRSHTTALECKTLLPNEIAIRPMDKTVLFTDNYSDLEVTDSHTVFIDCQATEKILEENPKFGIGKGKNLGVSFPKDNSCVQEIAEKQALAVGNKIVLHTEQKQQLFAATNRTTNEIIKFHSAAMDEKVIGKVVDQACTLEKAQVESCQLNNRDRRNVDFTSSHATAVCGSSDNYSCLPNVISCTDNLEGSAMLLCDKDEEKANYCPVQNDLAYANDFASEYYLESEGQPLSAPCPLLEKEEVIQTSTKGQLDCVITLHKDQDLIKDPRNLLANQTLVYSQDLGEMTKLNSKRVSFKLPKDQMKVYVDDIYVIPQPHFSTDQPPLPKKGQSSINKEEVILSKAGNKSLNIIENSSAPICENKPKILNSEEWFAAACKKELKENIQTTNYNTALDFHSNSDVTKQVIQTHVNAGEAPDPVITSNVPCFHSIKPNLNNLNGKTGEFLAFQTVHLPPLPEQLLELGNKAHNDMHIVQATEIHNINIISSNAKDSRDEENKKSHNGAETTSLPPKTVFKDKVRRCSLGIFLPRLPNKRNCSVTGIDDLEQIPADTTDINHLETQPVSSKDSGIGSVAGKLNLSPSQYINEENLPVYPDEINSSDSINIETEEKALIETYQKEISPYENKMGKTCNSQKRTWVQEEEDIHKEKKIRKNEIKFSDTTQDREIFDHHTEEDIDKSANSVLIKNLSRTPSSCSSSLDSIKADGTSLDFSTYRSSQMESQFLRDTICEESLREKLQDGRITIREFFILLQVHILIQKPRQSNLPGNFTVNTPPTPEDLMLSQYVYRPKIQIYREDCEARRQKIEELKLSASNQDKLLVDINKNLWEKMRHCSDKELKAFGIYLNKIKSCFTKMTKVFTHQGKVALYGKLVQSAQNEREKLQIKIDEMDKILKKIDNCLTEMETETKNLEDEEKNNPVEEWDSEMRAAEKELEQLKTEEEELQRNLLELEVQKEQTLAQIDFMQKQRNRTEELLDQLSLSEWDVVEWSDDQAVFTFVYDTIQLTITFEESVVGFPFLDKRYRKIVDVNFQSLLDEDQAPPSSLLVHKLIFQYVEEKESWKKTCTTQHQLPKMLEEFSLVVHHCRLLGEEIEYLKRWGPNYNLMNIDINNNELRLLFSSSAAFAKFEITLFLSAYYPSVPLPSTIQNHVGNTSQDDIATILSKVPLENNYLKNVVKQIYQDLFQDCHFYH
UniProt Q9NSP4: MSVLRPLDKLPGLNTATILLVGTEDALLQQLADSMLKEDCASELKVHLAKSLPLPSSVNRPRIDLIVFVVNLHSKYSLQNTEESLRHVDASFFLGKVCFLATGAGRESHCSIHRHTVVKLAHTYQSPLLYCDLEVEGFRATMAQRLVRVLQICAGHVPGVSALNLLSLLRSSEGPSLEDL

For CENP-M (from UniProt Q9NSP4 1-180), the binding was “no binding”.

— article PMC4080450 (eLife, 2014)
